We go through one substance from article PMC3520743.

By UniProt entry, the sequences of proteins in these tests, tags left out. Residues count along the entry.
UniProt P02769, residues 25-607: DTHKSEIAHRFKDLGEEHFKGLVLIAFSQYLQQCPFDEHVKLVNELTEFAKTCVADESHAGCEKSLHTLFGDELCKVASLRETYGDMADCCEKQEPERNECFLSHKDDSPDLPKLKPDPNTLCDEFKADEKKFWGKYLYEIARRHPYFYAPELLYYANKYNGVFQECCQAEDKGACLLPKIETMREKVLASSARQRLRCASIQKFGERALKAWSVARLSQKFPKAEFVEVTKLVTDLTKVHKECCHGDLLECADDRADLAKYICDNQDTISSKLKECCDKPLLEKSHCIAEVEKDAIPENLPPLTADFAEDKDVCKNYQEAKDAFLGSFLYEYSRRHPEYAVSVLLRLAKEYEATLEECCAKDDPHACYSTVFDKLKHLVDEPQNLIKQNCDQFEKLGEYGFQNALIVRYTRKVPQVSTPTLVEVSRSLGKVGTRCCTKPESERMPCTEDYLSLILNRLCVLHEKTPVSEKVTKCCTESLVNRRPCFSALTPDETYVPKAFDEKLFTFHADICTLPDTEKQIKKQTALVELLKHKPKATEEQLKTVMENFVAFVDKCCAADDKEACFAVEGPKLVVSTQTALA
UniProt Q0GZR8: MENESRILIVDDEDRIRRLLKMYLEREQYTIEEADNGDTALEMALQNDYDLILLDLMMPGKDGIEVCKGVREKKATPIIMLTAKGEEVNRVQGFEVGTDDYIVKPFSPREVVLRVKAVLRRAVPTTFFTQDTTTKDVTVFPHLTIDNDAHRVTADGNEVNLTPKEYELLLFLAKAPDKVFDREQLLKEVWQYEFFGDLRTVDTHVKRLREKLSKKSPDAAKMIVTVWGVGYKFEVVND

The test addresses Bovine serum albumin (bovine) (UniProt P02769). The test can be described thus: far-Western, overlay or dot blot; increasing amounts of purified Fnr, ResD, PlcR and BSA spotted onto nitrocellulose, incubated with biotinylated PlcR or biotinylated ResD under anoxic conditions; streptavidin-HRP, chemiluminescence; both purified.

Results are given in words; binding and its absence hold for the method and conditions named.

Regarding “ResD, recombinant purified (from UniProt Q0GZR8 1-238)”, the binding entry was “no binding”.
